Measured values published in article PMC5413510, “An Analysis of Trafficking Receptors Shows that CD44 and P-Selectin Glycoprotein Ligand-1 Collectively Control the Migration of Activated Human T-Cells” (Frontiers in Immunology, 2017).
No constants are given. Whether binding was seen depends on the method and setting. Some binding calls cover weakened binding; strength is not graded here. For some assays here: Tags and fused reporters may be left off the sequences shown.

Protein sequences, listed by entry. Tags and fused reporters are not part of them. Lines headed by an entry give the natural chain unless they say otherwise; changes in a name come on top. Chains listed by the source or under a name are the forms on record and can include a tag or linker.
CD44s (standard form of CD44) from activated human T-cells (human (endogenous in activated T-cells)) (P16070, form named): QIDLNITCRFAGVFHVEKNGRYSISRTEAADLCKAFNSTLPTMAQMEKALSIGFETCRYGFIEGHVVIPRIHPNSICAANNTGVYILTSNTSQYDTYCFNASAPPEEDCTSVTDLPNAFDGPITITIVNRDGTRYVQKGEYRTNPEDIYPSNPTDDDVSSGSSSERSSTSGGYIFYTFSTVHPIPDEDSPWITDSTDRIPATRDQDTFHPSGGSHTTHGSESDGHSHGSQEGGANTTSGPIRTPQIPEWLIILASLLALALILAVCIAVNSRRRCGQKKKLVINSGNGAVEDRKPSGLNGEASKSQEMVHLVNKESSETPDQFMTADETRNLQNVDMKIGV

T1: P-selectin glycoprotein ligand-1 (PSGL-1) from T-cells of psoriatic patients (human (endogenous in T-cells of psoriatic patients)) (UniProt Q14242)
T1 sequence: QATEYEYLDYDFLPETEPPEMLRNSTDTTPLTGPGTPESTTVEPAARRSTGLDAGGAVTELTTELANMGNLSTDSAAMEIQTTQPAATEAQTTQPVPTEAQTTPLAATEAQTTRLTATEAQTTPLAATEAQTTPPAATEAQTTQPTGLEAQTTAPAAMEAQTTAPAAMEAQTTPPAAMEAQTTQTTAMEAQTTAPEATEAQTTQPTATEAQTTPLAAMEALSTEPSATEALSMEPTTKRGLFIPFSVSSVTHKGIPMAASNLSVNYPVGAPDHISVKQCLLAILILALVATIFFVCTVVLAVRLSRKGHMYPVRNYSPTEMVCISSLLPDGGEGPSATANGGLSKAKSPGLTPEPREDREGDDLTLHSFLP

T2: P-selectin glycoprotein ligand-1 (PSGL-1) from activated human T-cells (human (endogenous in activated T-cells)) (UniProt Q14242)
T2 sequence (chain, O-glycans): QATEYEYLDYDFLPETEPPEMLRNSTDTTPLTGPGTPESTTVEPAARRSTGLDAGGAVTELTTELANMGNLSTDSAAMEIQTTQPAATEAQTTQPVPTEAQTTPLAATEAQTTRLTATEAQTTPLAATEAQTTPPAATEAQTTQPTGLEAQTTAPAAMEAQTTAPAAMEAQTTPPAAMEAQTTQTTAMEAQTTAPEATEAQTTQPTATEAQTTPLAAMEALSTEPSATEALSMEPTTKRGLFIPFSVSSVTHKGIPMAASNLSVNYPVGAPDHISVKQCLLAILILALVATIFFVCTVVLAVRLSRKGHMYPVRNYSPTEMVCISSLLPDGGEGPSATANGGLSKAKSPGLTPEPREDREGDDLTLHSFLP


Key:
[1] = target: CD44s (standard form of CD44) from activated human T-cells (human (endogenous in activated T-cells)) (UniProt P16070); assay: far-Western, overlay or dot blot; ligand immuno-purified from T-cells, resolved for Western blot and stained with E-Ig; some samples treated beforehand with PNGaseF, sialidase or OSGE; CD44v6, CD44v10 and CD44s purified one after the other from lysates at 24 h, 48 h and Day 5 (binding of CD44s first detected at 48 h, stronger at Day 5); both purified
[2] = target: T1, P-selectin glycoprotein ligand-1 (PSGL-1) from T-cells of psoriatic patients (human (endogenous in T-cells of psoriatic patients)); assay: as above
[3] = target: T2, P-selectin glycoprotein ligand-1 (PSGL-1) from activated human T-cells (human (endogenous in activated T-cells)); assay: as above
[4] = target: T2, P-selectin glycoprotein ligand-1 (PSGL-1) from activated human T-cells (human (endogenous in activated T-cells)); assay: SPR; BIAcore CM5 chip; CD44 and PSGL-1 captured from activated T-cell lysate by immobilised mAbs Hermes-3 and KPL-1; 100 nM E-Ig injected at 20 ul/min with 1 mM Ca2+ or 5 mM EDTA at 50 mM NaCl; isotype control subtracted; both purified
[5] = target: T2, P-selectin glycoprotein ligand-1 (PSGL-1) from activated human T-cells (human (endogenous in activated T-cells)); assay: blot rolling assay; immuno-purified CD44/HCELL or PSGL-1 resolved by SDS-PAGE and blotted; CHO-E cells perfused over the blot in HBSS, 2 mM Ca2+, 10% glycerol at 0.5 dyn cm^-2; 5 mM EDTA as control of specificity; only the target purified

binding [1]	binding [2]	binding [3]	binding [4]	binding [5]	Binder
binds	binds	binds	binds	–	recombinant mouse E-selectin/CD62E Fc chimera (E-Ig) (Fc fusion, UniProt Q00690 22-557, looked up, E-selectin (CD62E), mouse; Mouse is named only in the flow cytometry methods; also called E-selectin-hIg chimera; recombinant E-selectin–Ig chimera; source: bought: R&D) WYYNASSELMTYDEASAYCQRDYTHLVAIQNKEEINYLNSNLKHSPSYYWIGIRKVNNVWIWVGTGKPLTEEAQNWAPGEPNNKQRNEDCVEIYIQRTKDSGMWNDERCNKKKLALCYTASCTNASCSGHGECIETINSYTCKCHPGFLGPNCEQAVTCKPQEHPDYGSLNCSHPFGPFSYNSSCSFGCKRGYLPSSMETTVRCTSSGEWSAPAPACHVVECEALTHPAHGIRKCSSNPGSYPWNTTCTFDCVEGYRRVGAQNLQCTSSGIWDNETPSCKAVTCDAIPQPQNGFVSCSHSTAGELAFKSSCNFTCEQSFTLQGPAQVECSAQGQWTPQIPVCKAVQCEALSAPQQGNMKCLPSASGPFQNGSSCEFSCEEGFELKGSRRLQCGPRGEWDSKKPTCSAVKCDDVPRPQNGVMECAHATTGEFTYKSSCAFQCNEGFSLHGSAQLECTSQGKWTQEVPSCQVVQCPSLDVPGKMNMSCSGTAVFGTVCEFTCPDDWTLNGSAVLTCGATGRWSGMPPTCEAPVSPTRP
–	–	–	–	binds	E-selectin on CHO cells expressing E-selectin (CHO-E) (receptor, UniProt P16581 22-610) WSYNTSTEAMTYDEASAYCQQRYTHLVAIQNKEEIEYLNSILSYSPSYYWIGIRKVNNVWVWVGTQKPLTEEAKNWAPGEPNNRQKDEDCVEIYIKREKDVGMWNDERCSKKKLALCYTAACTNTSCSGHGECVETINNYTCKCDPGFSGLKCEQIVNCTALESPEHGSLVCSHPLGNFSYNSSCSISCDRGYLPSSMETMQCMSSGEWSAPIPACNVVECDAVTNPANGFVECFQNPGSFPWNTTCTFDCEEGFELMGAQSLQCTSSGNWDNEKPTCKAVTCRAVRQPQNGSVRCSHSPAGEFTFKSSCNFTCEEGFMLQGPAQVECTTQGQWTQQIPVCEAFQCTALSNPERGYMNCLPSASGSFRYGSSCEFSCEQGFVLKGSKRLQCGPTGEWDNEKPTCEAVRCDAVHQPPKGLVRCAHSPIGEFTYKSSCAFSCEEGFELHGSTQLECTSQGQWTEEVPSCQVVKCSSLAVPGKINMSCSGEPVFGTVCKFACPEGWTLNGSAARTCGATGHWSGLLPTCEAPTESNIPLVAGLSAAGLSLLTLAPFLLWLRKCLRKAKKFVPASSCQSLESDGSYQKPSYIL
